Assay results as given in the supplement of paper PMC10849652.
The list shows a part of the results.

Sequences of proteins named here, by UniProt entry; tags and fusion partners are left off. A change or cut given only in a name is not applied to a line headed by its entry.
UniProt P29083: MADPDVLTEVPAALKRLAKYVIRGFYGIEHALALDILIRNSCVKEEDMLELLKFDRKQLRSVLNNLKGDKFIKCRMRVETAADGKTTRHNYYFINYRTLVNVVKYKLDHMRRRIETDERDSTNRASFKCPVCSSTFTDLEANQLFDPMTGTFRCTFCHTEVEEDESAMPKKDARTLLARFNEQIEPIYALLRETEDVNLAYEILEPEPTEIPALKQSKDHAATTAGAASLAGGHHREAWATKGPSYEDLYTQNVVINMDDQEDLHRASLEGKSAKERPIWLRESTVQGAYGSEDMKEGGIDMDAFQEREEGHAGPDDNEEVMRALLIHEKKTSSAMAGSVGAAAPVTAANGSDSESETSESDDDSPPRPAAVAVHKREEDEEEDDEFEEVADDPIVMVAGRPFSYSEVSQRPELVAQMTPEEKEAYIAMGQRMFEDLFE
UniProt O43824: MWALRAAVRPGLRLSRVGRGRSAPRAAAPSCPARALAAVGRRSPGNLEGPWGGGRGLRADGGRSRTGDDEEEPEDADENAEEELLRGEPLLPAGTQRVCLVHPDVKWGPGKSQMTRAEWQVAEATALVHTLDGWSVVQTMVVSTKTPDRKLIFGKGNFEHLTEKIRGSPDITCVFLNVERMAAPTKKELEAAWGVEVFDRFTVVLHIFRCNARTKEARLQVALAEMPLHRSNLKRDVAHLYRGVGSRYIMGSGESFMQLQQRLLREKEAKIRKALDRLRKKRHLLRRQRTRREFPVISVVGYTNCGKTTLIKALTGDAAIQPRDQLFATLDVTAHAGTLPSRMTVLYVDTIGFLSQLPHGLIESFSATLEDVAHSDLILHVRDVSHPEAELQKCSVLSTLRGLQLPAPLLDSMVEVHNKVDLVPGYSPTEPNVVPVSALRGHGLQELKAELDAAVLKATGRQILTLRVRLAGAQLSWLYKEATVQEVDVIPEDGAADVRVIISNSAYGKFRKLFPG
UniProt P51610: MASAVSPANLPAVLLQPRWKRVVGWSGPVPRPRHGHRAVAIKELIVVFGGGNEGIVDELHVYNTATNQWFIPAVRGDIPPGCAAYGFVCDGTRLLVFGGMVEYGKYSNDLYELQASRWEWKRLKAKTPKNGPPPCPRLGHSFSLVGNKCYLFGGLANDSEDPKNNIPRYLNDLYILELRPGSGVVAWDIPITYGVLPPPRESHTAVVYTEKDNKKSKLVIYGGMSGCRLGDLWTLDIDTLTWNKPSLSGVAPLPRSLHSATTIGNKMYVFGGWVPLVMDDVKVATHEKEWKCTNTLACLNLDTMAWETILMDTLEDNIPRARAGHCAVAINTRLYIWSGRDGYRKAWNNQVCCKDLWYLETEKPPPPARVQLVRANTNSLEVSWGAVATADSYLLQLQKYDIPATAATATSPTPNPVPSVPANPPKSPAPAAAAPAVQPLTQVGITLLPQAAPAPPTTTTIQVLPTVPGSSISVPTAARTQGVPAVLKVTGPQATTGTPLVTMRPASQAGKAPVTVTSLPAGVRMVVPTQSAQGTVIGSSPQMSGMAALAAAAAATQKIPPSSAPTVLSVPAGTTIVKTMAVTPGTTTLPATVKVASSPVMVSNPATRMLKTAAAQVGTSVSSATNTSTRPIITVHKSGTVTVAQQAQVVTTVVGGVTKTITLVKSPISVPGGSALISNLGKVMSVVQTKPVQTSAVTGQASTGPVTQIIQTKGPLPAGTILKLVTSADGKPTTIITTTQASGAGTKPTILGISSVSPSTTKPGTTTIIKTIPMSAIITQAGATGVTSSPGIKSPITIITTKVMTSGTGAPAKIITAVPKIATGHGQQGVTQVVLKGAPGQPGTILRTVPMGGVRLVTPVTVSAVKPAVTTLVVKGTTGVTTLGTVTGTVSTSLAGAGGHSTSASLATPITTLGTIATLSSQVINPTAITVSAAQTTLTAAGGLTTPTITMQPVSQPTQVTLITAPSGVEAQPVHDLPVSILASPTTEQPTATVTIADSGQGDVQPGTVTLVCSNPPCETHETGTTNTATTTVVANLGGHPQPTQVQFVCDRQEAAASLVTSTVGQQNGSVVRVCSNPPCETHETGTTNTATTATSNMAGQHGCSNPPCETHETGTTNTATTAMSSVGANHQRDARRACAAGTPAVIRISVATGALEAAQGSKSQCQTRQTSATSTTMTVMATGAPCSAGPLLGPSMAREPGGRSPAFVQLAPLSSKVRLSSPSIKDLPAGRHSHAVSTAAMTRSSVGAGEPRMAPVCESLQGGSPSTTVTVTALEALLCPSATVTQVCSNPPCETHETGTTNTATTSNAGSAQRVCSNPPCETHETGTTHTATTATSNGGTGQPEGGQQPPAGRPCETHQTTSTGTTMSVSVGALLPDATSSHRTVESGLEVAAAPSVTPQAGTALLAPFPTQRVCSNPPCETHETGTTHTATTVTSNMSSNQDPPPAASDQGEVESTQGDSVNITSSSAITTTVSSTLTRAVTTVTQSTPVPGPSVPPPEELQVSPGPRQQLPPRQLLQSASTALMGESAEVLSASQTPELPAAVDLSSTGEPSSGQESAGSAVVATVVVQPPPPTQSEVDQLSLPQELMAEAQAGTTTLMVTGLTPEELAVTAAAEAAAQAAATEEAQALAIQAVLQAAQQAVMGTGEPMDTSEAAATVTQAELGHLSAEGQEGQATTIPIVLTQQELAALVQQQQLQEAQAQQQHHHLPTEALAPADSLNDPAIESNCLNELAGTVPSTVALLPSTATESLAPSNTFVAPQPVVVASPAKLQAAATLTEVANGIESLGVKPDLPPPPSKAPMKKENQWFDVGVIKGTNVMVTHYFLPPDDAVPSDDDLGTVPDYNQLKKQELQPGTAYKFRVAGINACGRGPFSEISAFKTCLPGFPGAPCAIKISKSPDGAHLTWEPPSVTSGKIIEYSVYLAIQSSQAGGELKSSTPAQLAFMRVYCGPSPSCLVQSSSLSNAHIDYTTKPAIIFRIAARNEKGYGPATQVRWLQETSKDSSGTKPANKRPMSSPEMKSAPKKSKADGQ
UniProt P21266: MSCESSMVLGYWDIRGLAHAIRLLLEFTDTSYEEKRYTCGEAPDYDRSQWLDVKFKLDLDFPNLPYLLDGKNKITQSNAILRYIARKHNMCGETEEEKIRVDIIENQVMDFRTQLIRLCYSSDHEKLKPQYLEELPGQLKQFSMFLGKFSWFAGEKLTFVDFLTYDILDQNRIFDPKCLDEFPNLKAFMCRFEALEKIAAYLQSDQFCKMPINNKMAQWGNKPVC
UniProt Q92664: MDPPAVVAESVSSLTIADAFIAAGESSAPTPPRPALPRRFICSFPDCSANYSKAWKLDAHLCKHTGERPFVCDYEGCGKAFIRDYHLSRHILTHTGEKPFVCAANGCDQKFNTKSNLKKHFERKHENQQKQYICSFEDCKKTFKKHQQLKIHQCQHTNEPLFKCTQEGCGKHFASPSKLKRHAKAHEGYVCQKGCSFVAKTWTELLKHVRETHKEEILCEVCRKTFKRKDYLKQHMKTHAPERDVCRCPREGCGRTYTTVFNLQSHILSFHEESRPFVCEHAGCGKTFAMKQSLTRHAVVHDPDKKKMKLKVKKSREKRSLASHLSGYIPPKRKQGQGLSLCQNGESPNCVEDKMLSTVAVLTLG
UniProt Q16774: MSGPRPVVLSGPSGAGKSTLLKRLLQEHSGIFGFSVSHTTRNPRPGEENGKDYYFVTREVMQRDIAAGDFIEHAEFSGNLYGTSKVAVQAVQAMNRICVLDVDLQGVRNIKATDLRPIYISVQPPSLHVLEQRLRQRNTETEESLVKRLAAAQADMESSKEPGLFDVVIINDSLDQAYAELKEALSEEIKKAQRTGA
UniProt P55084: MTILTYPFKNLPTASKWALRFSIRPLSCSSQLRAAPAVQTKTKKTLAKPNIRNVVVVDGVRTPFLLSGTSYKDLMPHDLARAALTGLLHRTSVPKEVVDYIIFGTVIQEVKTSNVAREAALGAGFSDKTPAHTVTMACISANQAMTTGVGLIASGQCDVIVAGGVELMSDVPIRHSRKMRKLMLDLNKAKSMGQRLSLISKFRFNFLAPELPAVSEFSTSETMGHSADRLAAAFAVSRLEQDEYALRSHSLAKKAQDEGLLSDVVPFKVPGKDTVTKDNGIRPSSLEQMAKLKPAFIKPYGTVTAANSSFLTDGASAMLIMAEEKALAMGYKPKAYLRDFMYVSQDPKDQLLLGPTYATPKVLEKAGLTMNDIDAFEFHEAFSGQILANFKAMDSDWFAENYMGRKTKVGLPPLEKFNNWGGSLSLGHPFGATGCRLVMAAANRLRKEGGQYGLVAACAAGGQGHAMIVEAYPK
UniProt Q9H0R4: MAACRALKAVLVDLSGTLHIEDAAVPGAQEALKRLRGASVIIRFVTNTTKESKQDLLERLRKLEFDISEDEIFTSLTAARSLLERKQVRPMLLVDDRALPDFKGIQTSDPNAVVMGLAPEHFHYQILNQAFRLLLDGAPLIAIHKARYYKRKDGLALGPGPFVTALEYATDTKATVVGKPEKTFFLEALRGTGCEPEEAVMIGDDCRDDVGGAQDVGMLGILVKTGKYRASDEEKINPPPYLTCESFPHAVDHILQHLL
UniProt Q03013: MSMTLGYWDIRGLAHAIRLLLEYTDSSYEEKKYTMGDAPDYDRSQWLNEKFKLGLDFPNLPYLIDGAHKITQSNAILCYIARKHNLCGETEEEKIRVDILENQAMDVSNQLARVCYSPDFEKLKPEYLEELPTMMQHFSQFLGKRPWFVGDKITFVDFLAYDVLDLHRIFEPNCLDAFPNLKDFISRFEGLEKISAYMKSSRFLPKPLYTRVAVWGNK
UniProt P40939: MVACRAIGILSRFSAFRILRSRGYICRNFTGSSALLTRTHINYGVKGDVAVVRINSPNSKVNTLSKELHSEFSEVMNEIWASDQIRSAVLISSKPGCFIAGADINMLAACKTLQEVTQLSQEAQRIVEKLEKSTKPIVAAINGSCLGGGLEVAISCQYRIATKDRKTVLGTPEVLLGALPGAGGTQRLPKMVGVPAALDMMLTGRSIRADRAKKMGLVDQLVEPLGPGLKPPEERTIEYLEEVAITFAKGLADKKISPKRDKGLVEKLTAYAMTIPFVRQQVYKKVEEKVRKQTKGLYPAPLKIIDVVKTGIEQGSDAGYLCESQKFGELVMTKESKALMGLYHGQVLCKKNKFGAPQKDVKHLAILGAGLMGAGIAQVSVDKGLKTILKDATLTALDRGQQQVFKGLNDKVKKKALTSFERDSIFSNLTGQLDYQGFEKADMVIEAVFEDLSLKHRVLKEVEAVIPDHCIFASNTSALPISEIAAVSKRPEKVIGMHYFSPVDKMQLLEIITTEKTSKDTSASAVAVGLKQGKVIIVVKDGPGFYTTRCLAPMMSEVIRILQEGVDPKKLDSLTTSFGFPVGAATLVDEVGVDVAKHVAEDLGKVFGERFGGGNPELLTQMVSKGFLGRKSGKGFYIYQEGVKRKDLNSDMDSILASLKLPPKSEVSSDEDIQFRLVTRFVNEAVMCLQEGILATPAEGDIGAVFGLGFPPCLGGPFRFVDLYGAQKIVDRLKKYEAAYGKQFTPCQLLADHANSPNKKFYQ
UniProt Q7Z4V5: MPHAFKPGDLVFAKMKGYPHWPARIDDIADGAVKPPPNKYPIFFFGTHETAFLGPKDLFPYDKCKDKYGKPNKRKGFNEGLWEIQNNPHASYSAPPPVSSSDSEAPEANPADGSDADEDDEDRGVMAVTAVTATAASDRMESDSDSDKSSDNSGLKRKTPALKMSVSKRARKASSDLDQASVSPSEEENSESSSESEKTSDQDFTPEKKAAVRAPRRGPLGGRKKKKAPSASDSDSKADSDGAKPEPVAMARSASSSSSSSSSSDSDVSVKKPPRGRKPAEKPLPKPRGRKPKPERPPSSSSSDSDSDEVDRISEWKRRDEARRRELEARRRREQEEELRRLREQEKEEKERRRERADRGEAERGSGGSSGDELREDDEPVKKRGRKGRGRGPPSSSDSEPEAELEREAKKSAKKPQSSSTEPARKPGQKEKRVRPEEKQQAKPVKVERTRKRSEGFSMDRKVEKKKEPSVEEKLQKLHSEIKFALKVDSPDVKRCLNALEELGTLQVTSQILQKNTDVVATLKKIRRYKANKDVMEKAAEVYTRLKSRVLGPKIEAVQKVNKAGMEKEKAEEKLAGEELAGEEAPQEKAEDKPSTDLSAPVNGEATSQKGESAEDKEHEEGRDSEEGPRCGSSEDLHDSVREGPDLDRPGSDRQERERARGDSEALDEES
UniProt O14929: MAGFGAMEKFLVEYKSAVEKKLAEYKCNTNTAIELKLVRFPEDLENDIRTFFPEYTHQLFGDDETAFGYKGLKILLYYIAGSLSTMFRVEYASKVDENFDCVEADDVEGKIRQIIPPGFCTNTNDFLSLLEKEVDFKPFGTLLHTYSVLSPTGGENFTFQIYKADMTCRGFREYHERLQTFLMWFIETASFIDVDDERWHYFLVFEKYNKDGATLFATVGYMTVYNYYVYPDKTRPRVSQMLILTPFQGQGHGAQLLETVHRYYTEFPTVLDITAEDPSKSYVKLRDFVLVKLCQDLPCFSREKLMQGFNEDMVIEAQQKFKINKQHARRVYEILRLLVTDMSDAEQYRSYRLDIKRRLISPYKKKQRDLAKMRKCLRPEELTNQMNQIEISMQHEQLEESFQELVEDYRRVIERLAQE

Assays:
Assay in all cases: log2 fold change, soluble protein after heating vs DMSO (PISA); higher = thermal stabilisation; K562 cells, 10 uM, 30 min; active = over 0.2 and 3.5 SD of the protein, either way, in both replicates (recomputed)
[1] = compound: CS(=O)(=O)c1ccc(-c2cnc(N)c(C(=O)Nc3ccccc3)n2)cc1
Summary of the method: (§1)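 K562 cells (2×10^6 cells/mL) were treated with 10 μM compound for 30 min, and aliquots were heated for 3 min over 48°C-58°C. Pooled aliquots were extracted in PBS with 0.5% NP-40 at 4°C, and the supernatant after 21,000xg for 90 min was measured by TMTpro 16plex LC-MS/MS with channel sums equalised. Reported thermal stability, relative to control samples and from duplicates, is a log2 fold change.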

[2] = compound: C[C@@H](Oc1cc(-c2cnn(C3CCNCC3)c2)cnc1N)c1c(Cl)ccc(F)c1Cl [crizotinib]
Summary of the method: as §1

[3] = compound: C[C@@H]1COCCN1C2=NC(=NC(=C2)C3(CC3)S(=O)(=O)C)C4=C5C=CNC5=CC=C4
Summary of the method: as §1

[4] = compound: C[C@H](C1=CC=C(C=C1)C(=O)NC2=C3C=CNC3=NC=C2)N
Summary of the method: as §1

[5] = compound: Cc1cc(Nc2cc(CN3CCOCC3)c3nc(C)c(Cc4ccc(Cl)cc4F)n3n2)n[nH]1 [gandotinib]
Summary of the method: as §1

[6] = compound: Cc1cc(SCc2sc(-c3ccc(C(F)(F)F)cc3)nc2C)ccc1OCC(=O)O
Summary of the method: as §1

[7] = compound: Cc1ccc(-n2nc(C(C)(C)C)cc2NC(=O)Nc2ccc(OCCN3CCOCC3)c3ccccc23)cc1 [doramapimod]
Summary of the method: as §1

[8] = compound: Cc1ccc(C(=O)N(CCCN)[C@@H](c2nc3cc(Cl)ccc3c(=O)n2Cc2ccccc2)C(C)C)cc1 [ispinesib]
Summary of the method: as §1

[9] = compound: Cc1ccc(NC(=O)c2ccc(CN3CC[C@H](N(C)C)C3)c(C(F)(F)F)c2)cc1Nc1nccc(-c2cncnc2)n1 [bafetinib]
Summary of the method: as §1

[10] = compound: Cc1cccc(CC(=O)N2CCc3c2ccc(-c2cn(C)c4ncnc(N)c24)c3F)n1
Summary of the method: as §1

[11] = compound: Cc1cn(-c2cc(NC(=O)c3ccc(C)c(Nc4nccc(-c5cccnc5)n4)c3)cc(C(F)(F)F)c2)cn1 [nilotinib]
Summary of the method: as §1

[12] = compound: Cc1nc(Nc2n[nH]c3c2CN(C(=O)N[C@H](CN(C)C)c2ccccc2)C3(C)C)c2sccc2n1
Summary of the method: as §1

[13] = compound: Cc1nc(Nc2ncc(C(=O)Nc3c(C)cccc3Cl)s2)cc(N2CCN(CCO)CC2)n1 [dasatinib]
Summary of the method: as §1

[14] = compound: Cc1ncc(-c2ccnc(Nc3ccc(S(C)(=O)=O)cc3)n2)n1C(C)C
Summary of the method: as §1

[15] = compound: Cn1cc(-c2ccc3c(c2)CCN3C(=O)Cc2cccc(C(F)(F)F)c2)c2c(N)ncnc21
Summary of the method: as §1

[16] = compound: Cn1cc(-c2ccc3nnc(C(F)(F)c4ccc5ncccc5c4)n3n2)cn1
Summary of the method: as §1

[17] = compound: Cn1cncc1[C@@](N)(c1ccc(Cl)cc1)c1ccc2c(c1)c(-c1cccc(Cl)c1)cc(=O)n2C [tipifarnib]
Summary of the method: as §1

[18] = compound: FC(F)(F)c1ccc(/C=C/c2nc(COc3ccc(CCCCn4ccnn4)cc3)co2)cc1 [mubritinib]
Summary of the method: as §1

[19] = compound: Cc1cc(Nc2cc(N3CCN(C)CC3)nc(Sc3ccc(NC(=O)C4CC4)cc3)n2)n[nH]1 [tozasertib]
Summary of the method: as §1

[20] = compound: C[C@H](Nc1ncnc2nc[nH]c12)c1cc2cccc(Cl)c2c(=O)n1-c1ccccc1 [duvelisib]
Summary of the method: as §1

Target | log2 fold change [1] | log2 fold change [2] | log2 fold change [3] | log2 fold change [4] | log2 fold change [5] | log2 fold change [6] | log2 fold change [7] | log2 fold change [8] | log2 fold change [9] | log2 fold change [10] | log2 fold change [11] | log2 fold change [12] | log2 fold change [13] | log2 fold change [14] | log2 fold change [15] | log2 fold change [16] | log2 fold change [17] | log2 fold change [18] | log2 fold change [19] | log2 fold change [20]
GTF2E1 (UniProt P29083) | inactive: 0.008 | inactive: 0.02 | inactive: 0.118 | inactive: -0.088 | inactive: -0.011 | inactive: 0.059 | inactive: -0.03 | inactive: -0.028 | inactive: 0.014 | inactive: 0.037 | inactive: -0.112 | inactive: -0.168 | inactive: -0.173 | inactive: -0.032 | inactive: 0.02 | inactive: 0.093 | inactive: -0.13 | inactive: 0.05 | – | –
GTPBP6 (UniProt O43824) | inactive: -0.002 | inactive: 0.012 | inactive: 0.197 | inactive: -0.066 | inactive: 0.003 | inactive: -0.006 | inactive: 0.06 | inactive: 0.076 | active: -0.706 | inactive: -0.072 | inactive: 0.13 | inactive: 0.069 | inactive: 0.028 | inactive: -0.042 | inactive: 0.057 | inactive: 0.042 | – | inactive: 0.058 | – | –
HCFC1 (UniProt P51610) | inactive: 0.077 | inactive: -0.259 | – | – | inactive: -0.049 | – | inactive: 0.027 | inactive: -0.112 | – | inactive: -0.143 | inactive: -0.141 | inactive: -0.071 | – | inactive: 0.228 | – | inactive: 0.032 | – | inactive: -0.015 | inactive: 0.132 | –
GSTM3 (UniProt P21266) | inactive: -0.138 | – | inactive: 0.018 | inactive: -0.071 | inactive: 0.007 | inactive: 0.08 | – | – | inactive: -0.038 | inactive: -0.036 | inactive: -0.013 | inactive: 0.011 | inactive: -0.094 | inactive: 0.044 | inactive: 0.104 | – | inactive: 0.099 | inactive: -0.005 | inactive: -0.033 | inactive: -0.001
GTF3A (UniProt Q92664) | inactive: -0.002 | inactive: -0.145 | inactive: 0.015 | inactive: 0.078 | inactive: 0.023 | inactive: 0.023 | inactive: -0.001 | – | inactive: -0.113 | inactive: -0.026 | inactive: 0.042 | inactive: -0.219 | inactive: -0.137 | inactive: -0.031 | inactive: 0.023 | – | inactive: -0.12 | inactive: 0.06 | – | –
GUK1 isoform 2 (UniProt Q16774) | inactive: 0.13 | inactive: -0.007 | inactive: 0.161 | inactive: 0.049 | inactive: -0.03 | inactive: 0.102 | inactive: -0.004 | inactive: 0.012 | inactive: 0.134 | inactive: 0.053 | inactive: 0.226 | inactive: -0.056 | inactive: -0.109 | inactive: 0.054 | inactive: 0.058 | inactive: -0.007 | inactive: -0.15 | active: 0.397 | – | –
HADHB (UniProt P55084) | inactive: -0.087 | inactive: 0.109 | inactive: 0.099 | inactive: -0.023 | inactive: 0.083 | inactive: 0.138 | inactive: 0.167 | inactive: 0.199 | inactive: 0.251 | inactive: 0.132 | inactive: 0.074 | inactive: -0.106 | inactive: -0.072 | inactive: 0.032 | inactive: 0.155 | inactive: 0.108 | inactive: -0.264 | active: 0.571 | – | –
HDHD2 (UniProt Q9H0R4) | inactive: -0.11 | inactive: -0.031 | inactive: -0.01 | inactive: 0.001 | inactive: 0 | inactive: -0.023 | inactive: -0.081 | inactive: 0.004 | inactive: 0.068 | inactive: 0.018 | inactive: 0.024 | inactive: -0.04 | inactive: 0.042 | inactive: 0.006 | inactive: 0.019 | inactive: 0.028 | inactive: -0.011 | inactive: 0.045 | – | –
GSTM4 (UniProt Q03013) | inactive: -0.181 | inactive: -0.006 | inactive: 0.004 | inactive: 0.054 | inactive: -0.028 | inactive: 0.035 | inactive: -0.037 | inactive: -0.012 | inactive: 0.021 | inactive: 0.002 | inactive: 0.001 | inactive: 0.088 | inactive: 0 | inactive: -0.018 | inactive: 0.026 | inactive: -0.141 | inactive: -0.023 | inactive: -0.08 | – | –
HADHA (UniProt P40939) | inactive: -0.058 | inactive: 0.079 | inactive: 0.068 | inactive: -0.017 | inactive: 0.086 | inactive: 0.154 | inactive: 0.176 | inactive: 0.171 | inactive: 0.293 | inactive: 0.097 | inactive: 0.049 | inactive: -0.078 | inactive: -0.05 | inactive: 0.036 | inactive: 0.203 | inactive: 0.069 | inactive: -0.304 | active: 0.685 | – | –
HDGFL2 (UniProt Q7Z4V5) | inactive: 0.086 | inactive: -0.007 | inactive: -0.052 | inactive: -0.04 | inactive: 0.005 | inactive: -0.061 | inactive: -0.045 | inactive: 0.019 | inactive: -0.017 | inactive: -0.013 | inactive: -0.007 | inactive: -0.061 | inactive: 0.035 | inactive: -0.029 | inactive: -0.018 | inactive: -0.048 | inactive: 0.032 | inactive: 0.098 | – | –
H3-2 (UniProt Q5TEC6) | inactive: 0.207 | inactive: -0.144 | – | – | inactive: 0.078 | – | inactive: 0.23 | inactive: -0.212 | inactive: -0.618 | inactive: -0.342 | inactive: -0.123 | inactive: -0.039 | – | inactive: -0.04 | – | inactive: -0.032 | inactive: 0.223 | inactive: 0.064 | – | –
HBQ1 (UniProt P09105) | inactive: -0.017 | inactive: 0.037 | inactive: 0.065 | inactive: -0.148 | inactive: -0.002 | inactive: -0.023 | inactive: -0.003 | inactive: 0.092 | inactive: 0.028 | inactive: 0.046 | inactive: 0.054 | inactive: -0.004 | inactive: 0.102 | inactive: -0.043 | inactive: 0.12 | inactive: 0.117 | inactive: -0.125 | inactive: 0.039 | – | –
HBA1 (UniProt P69905) | inactive: 0.009 | inactive: 0.097 | inactive: 0.213 | inactive: -0.058 | inactive: 0.025 | inactive: 0.004 | inactive: 0 | inactive: 0.24 | inactive: -0.013 | inactive: 0.138 | inactive: 0.029 | inactive: 0.017 | inactive: 0.044 | inactive: 0.01 | inactive: 0.156 | active: 0.345 | inactive: -0.084 | inactive: 0.024 | – | –
GTF2E2 (UniProt P29084) | inactive: 0.037 | inactive: 0.012 | inactive: -0.029 | inactive: -0.002 | inactive: -0.03 | inactive: 0.071 | inactive: -0.025 | inactive: -0.01 | inactive: 0.031 | inactive: 0.03 | inactive: -0.082 | inactive: -0.108 | inactive: -0.241 | inactive: 0.005 | inactive: -0.016 | inactive: 0.044 | inactive: 0.051 | inactive: -0.02 | – | –
GTF2A1 (UniProt P52655) | inactive: 0.061 | inactive: 0.074 | inactive: 0.061 | inactive: -0.065 | inactive: 0.07 | inactive: -0.066 | inactive: -0.107 | inactive: 0.24 | inactive: 0 | inactive: -0.047 | inactive: 0.111 | inactive: -0.047 | inactive: 0.068 | inactive: -0.078 | inactive: 0.081 | inactive: 0.349 | inactive: 0.144 | inactive: -0.008 | – | –
HAT1 (UniProt O14929) | inactive: -0.011 | inactive: 0.013 | inactive: 0.007 | inactive: -0.225 | inactive: 0.019 | inactive: 0.033 | inactive: -0.04 | inactive: 0.135 | inactive: -0.115 | inactive: 0.017 | inactive: 0.004 | inactive: -0.035 | inactive: -0.044 | inactive: -0.025 | inactive: 0.024 | inactive: 0.006 | inactive: 0.004 | inactive: -0.033 | – | –
GUF1 (UniProt Q8N442) | inactive: 0.155 | inactive: 0.242 | – | – | inactive: 0.069 | inactive: 0.459 | inactive: 0.058 | inactive: 0.126 | – | inactive: -0.023 | inactive: -0.068 | inactive: 0.034 | inactive: -0.143 | inactive: -0.002 | – | inactive: 0.022 | inactive: -0.283 | inactive: -0.259 | inactive: -0.069 | inactive: 0.148
HAUS8 (UniProt Q9BT25) | – | – | – | inactive: 0.251 | inactive: 0.141 | – | – | inactive: -0.116 | – | inactive: 0.086 | inactive: -0.028 | inactive: -0.171 | – | inactive: 0.062 | inactive: -0.167 | inactive: -0.24 | inactive: 0.083 | inactive: -0.235 | – | –

An excerpt of these results, tab-delimited.
Target	log2 fold change [1]	log2 fold change [2]	log2 fold change [3]	log2 fold change [4]	log2 fold change [5]	log2 fold change [6]	log2 fold change [7]	log2 fold change [8]	log2 fold change [9]	log2 fold change [10]	log2 fold change [11]	log2 fold change [12]	log2 fold change [13]	log2 fold change [14]	log2 fold change [15]	log2 fold change [16]	log2 fold change [17]	log2 fold change [18]	log2 fold change [19]	log2 fold change [20]
HBQ1 (UniProt P09105)	inactive: -0.017	inactive: 0.037	inactive: 0.065	inactive: -0.148	inactive: -0.002	inactive: -0.023	inactive: -0.003	inactive: 0.092	inactive: 0.028	inactive: 0.046	inactive: 0.054	inactive: -0.004	inactive: 0.102	inactive: -0.043	inactive: 0.12	inactive: 0.117	inactive: -0.125	inactive: 0.039	–	–
HBA1 (UniProt P69905)	inactive: 0.009	inactive: 0.097	inactive: 0.213	inactive: -0.058	inactive: 0.025	inactive: 0.004	inactive: 0	inactive: 0.24	inactive: -0.013	inactive: 0.138	inactive: 0.029	inactive: 0.017	inactive: 0.044	inactive: 0.01	inactive: 0.156	active: 0.345	inactive: -0.084	inactive: 0.024	–	–
